In the supplement of paper PMC10849652:
The other results are listed elsewhere or left out.

Protein sequences, listed by entry. Tags and fused reporters are not part of them. Lines headed by an entry give the natural chain unless they say otherwise; changes in a name come on top.
UniProt Q12968: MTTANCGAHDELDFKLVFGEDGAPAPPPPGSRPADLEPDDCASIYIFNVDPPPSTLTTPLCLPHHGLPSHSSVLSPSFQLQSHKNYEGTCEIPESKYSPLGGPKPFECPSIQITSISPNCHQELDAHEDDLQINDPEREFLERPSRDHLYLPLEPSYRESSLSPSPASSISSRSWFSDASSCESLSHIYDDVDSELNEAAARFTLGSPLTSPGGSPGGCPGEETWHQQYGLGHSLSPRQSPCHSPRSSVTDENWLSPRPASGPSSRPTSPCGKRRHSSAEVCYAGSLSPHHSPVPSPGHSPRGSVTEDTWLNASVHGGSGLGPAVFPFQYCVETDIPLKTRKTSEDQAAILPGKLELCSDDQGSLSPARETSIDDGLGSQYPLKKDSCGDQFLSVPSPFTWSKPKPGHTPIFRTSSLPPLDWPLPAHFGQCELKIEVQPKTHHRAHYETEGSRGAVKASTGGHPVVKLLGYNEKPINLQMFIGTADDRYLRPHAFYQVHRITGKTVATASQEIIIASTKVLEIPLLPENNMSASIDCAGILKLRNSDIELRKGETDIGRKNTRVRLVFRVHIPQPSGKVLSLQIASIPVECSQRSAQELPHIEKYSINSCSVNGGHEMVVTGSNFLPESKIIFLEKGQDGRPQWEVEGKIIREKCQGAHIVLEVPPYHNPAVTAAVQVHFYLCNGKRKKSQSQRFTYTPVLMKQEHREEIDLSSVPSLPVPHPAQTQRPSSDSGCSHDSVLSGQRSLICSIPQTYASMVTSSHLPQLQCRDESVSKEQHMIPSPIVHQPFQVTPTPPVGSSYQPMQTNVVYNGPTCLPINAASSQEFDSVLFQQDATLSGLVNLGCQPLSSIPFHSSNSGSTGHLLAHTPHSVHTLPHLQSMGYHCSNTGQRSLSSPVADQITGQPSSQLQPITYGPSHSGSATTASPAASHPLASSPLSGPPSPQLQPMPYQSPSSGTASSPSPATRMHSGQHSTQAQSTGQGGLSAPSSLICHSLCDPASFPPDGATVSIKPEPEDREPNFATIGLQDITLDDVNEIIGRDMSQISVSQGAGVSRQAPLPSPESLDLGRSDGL
UniProt Q9BZQ8: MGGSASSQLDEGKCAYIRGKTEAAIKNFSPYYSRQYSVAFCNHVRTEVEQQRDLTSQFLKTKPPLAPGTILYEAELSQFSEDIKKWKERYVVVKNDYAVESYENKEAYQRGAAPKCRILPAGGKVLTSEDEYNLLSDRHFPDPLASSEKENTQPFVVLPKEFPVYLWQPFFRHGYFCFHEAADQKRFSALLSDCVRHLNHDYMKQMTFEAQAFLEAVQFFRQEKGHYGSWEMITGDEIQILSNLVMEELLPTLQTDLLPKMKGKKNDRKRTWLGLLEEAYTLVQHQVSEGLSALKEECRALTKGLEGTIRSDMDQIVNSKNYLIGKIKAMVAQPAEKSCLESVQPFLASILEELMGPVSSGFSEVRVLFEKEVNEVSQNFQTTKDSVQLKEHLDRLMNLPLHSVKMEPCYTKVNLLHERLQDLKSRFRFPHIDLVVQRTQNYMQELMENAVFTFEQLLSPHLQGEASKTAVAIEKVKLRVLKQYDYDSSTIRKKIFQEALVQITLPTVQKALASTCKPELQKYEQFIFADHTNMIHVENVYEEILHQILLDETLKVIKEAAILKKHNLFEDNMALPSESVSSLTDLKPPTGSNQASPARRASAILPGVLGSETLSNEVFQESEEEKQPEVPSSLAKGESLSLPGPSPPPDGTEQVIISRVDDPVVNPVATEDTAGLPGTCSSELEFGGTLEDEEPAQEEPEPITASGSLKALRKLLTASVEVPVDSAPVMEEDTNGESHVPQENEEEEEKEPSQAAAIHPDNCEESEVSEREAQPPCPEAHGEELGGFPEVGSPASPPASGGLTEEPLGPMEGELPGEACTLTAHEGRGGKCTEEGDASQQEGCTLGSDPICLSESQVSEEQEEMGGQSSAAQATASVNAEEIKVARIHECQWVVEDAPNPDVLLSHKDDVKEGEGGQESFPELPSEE
UniProt Q9UNZ2: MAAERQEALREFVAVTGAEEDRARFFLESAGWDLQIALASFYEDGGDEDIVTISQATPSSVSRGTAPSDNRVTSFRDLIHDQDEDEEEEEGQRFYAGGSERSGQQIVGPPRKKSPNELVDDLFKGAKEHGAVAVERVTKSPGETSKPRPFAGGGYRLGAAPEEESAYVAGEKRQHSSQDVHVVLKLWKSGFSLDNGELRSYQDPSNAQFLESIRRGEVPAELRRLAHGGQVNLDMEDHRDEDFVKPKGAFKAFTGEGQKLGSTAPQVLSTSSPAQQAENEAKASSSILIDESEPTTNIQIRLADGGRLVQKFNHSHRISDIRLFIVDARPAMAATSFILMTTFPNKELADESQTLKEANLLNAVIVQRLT
UniProt P40261: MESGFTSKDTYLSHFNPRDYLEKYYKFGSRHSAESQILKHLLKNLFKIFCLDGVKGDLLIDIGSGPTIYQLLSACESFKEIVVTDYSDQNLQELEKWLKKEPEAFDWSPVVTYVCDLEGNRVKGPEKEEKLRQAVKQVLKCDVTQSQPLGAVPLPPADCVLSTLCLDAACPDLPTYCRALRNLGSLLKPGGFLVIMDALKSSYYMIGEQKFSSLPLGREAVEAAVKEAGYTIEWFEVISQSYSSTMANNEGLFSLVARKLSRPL
UniProt Q9NX24: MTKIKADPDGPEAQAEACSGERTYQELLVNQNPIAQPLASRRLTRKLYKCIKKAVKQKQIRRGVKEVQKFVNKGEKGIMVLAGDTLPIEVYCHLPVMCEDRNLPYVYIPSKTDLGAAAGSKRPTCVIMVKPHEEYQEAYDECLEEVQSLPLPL
UniProt Q9Y5B8, whole entry, looked up: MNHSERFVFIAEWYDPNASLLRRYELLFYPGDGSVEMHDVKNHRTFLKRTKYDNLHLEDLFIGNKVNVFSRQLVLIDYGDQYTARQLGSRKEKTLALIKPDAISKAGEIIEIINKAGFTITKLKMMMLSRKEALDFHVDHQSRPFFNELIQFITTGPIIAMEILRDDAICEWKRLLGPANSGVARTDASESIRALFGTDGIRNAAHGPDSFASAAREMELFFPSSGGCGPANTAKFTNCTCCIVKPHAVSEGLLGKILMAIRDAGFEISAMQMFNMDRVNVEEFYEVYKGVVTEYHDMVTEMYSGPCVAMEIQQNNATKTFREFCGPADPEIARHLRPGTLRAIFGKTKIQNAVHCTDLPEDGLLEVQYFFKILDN
UniProt P61916: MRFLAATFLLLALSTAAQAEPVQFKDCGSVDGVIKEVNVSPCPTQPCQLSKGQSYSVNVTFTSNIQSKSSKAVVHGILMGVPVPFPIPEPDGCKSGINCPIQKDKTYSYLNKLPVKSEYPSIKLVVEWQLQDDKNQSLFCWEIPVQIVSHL
UniProt Q9BPW8: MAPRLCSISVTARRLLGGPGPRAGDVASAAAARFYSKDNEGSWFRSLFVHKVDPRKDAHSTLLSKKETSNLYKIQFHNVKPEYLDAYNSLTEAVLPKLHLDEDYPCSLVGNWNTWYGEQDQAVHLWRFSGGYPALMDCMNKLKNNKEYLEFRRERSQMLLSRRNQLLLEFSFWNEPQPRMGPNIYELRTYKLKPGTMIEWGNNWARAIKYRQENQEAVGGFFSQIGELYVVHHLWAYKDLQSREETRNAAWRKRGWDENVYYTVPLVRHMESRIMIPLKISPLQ
UniProt Q8NCF5: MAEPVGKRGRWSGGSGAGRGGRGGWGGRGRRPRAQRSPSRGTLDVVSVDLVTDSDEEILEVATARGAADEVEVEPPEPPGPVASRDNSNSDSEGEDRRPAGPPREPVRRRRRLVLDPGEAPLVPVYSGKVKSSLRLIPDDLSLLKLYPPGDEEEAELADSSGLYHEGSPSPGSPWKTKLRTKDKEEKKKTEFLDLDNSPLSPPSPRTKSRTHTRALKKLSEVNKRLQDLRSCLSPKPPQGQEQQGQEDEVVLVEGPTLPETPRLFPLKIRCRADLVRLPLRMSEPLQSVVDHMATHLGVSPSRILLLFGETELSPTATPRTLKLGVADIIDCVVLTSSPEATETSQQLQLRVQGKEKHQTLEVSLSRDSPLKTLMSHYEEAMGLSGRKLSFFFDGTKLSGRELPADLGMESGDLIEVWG
UniProt Q9H3P2, whole entry, looked up: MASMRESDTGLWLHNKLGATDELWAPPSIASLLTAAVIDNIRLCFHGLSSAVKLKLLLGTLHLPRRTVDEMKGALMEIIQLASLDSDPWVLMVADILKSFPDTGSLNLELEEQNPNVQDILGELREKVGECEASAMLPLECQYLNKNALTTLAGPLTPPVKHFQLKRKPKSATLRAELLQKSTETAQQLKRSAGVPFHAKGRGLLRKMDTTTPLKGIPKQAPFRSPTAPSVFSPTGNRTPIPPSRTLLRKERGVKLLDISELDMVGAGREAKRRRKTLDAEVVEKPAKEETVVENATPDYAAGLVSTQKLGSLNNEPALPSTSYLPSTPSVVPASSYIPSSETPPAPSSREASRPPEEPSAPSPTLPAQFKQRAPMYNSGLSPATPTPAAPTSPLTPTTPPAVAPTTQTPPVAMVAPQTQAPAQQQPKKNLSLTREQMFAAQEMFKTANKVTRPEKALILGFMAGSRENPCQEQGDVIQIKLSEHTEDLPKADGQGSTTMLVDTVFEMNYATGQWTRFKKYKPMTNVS
UniProt Q13952: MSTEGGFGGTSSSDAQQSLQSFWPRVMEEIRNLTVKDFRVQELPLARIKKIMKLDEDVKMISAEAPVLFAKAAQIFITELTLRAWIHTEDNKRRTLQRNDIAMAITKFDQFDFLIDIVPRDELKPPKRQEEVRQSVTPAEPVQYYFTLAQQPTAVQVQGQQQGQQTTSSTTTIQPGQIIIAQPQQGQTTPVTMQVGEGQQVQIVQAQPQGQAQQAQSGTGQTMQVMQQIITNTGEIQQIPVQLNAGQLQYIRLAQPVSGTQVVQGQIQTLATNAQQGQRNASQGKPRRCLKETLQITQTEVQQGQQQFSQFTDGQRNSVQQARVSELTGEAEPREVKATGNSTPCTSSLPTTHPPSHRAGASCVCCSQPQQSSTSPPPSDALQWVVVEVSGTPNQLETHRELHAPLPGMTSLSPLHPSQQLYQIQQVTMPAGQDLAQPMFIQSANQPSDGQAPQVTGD
UniProt P10588: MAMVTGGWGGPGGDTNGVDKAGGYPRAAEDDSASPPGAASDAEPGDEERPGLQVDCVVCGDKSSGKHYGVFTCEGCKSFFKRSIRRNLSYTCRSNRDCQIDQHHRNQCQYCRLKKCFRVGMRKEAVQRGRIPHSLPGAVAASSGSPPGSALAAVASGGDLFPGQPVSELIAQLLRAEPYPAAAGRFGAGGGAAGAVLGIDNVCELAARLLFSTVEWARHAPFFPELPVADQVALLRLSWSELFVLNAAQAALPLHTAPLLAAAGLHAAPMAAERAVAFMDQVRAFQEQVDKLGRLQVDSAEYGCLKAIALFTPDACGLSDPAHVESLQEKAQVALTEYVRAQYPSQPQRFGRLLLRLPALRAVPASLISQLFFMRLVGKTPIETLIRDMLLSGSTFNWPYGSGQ
UniProt Q9UMS0: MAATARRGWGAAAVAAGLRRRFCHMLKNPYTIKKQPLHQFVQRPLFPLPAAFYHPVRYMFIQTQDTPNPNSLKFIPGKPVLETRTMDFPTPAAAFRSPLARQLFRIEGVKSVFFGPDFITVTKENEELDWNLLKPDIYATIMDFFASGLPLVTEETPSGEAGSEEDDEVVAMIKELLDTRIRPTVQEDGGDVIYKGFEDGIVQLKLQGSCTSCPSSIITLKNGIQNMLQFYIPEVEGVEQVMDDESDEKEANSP
UniProt Q92636: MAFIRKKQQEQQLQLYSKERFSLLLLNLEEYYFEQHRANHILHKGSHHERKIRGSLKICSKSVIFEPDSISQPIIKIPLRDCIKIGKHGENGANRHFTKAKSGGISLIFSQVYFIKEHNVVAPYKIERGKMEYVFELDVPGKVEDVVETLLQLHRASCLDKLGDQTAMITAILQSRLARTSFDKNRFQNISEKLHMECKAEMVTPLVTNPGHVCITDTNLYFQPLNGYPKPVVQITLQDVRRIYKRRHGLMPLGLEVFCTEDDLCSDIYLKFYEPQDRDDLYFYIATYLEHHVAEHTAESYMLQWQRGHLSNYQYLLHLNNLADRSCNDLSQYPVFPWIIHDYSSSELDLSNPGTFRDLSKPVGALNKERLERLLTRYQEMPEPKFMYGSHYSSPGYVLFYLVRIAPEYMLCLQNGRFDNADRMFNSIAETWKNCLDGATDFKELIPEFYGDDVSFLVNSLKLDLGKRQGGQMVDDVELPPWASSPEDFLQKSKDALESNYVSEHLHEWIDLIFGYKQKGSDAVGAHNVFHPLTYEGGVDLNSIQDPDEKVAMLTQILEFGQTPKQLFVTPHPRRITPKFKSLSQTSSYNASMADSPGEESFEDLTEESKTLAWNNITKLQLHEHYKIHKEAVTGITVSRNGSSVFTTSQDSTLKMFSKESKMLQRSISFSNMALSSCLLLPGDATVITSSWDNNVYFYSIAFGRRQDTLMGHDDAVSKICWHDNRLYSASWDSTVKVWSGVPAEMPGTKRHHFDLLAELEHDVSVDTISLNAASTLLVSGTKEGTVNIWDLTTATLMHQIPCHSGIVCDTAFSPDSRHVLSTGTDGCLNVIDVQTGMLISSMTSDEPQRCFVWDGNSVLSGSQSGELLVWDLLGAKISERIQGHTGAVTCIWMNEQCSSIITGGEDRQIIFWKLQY

Assays:
Experiment in all cases: log2 fold change, soluble protein after heating vs DMSO (PISA); higher = thermal stabilisation; K562 cells, 10 uM, 30 min; active = over 0.2 and 3.5 SD of the protein, either way, in both replicates (recomputed)
[1] = compound: NC(=O)Nc1cc(-c2cccc(F)c2)sc1C(=O)N[C@H]1CCCNC1
How it was run: (§1)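 Soluble protein was quantified by TMTpro 16plex LC-MS/MS after channel sums were equalised. It was obtained as the supernatant after 21,000xg for 90 min from pooled aliquots of K562 cells (2×10^6 cells/mL, 10 μM compound, 30 min) heated for 3 min across 48°C-58°C and extracted in PBS with 0.5% NP-40 at 4°C. Thermal stability values are relative to control samples and come from duplicates. They are given as log2 fold changes.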

[2] = compound: NC(=O)c1cnc(N[C@@H]2CCCC[C@@H]2N)nc1Nc1cccc(-n2nccn2)c1
How it was run: as §1

[3] = compound: NC1(c2ccc(-c3nc4ccn5c(=O)[nH]nc5c4cc3-c3ccccc3)cc2)CCC1
How it was run: as §1

[4] = compound: NCC(=O)Nc1ccc(-n2nc(C(F)(F)F)cc2-c2ccc3c(ccc4ccccc43)c2)cc1
How it was run: as §1

[5] = compound: Nc1ccccc1NC(=O)c1ccc(CNC(=O)OCc2cccnc2)cc1 [entinostat]
How it was run: as §1

[6] = compound: O=C(CCCCCCC(=O)Nc1ccccc1)NO [vorinostat]
How it was run: as §1

[7] = compound: O=C(CCCCCCNC(=O)c1cnc(N(c2ccccc2)c2ccccc2Cl)nc1)NO [citarinostat]
How it was run: as §1

[8] = compound: O=C(O)c1ccc2c(c1)nc(Nc1cccc(Cl)c1)c1ccncc12 [silmitasertib]
How it was run: as §1

[9] = compound: O=C1NC(=O)C(c2cnc3ccccn23)=C1c1cn2c3c(cc(F)cc13)CN(C(=O)N1CCCCC1)CC2
How it was run: as §1

[10] = compound: c1cc(OCCN2CCCCC2)cc(-c2n[nH]c3ccc(-c4nnc[nH]4)cc23)c1
How it was run: as §1

Measured: log2 fold change

NFATC3 (UniProt Q12968)
inactive: [1] -0.15 | [2] -0.137 | [3] 0.034 | [4] 0.007 | [5] 0.107 | [6] 0.045 | [7] -0.101 | [8] 0.118 | [9] -0.267 | [10] -0.225

NPLOC4 isoform 2 (UniProt Q8TAT6)
inactive: [1] 0.02 | [2] -0.011 | [3] -0.067 | [4] -0.023 | [5] -0.002 | [6] 0.008 | [7] 0.034 | [8] -0.012 | [9] -0.041 | [10] -0.017

NIBAN1 (UniProt Q9BZQ8)
inactive: [1] -0.118 | [2] -0.036 | [3] -0.169 | [4] -0.036 | [5] 0.073 | [6] 0.106 | [7] 0.123 | [8] 0.029 | [9] -0.069 | [10] -0.106

NSFL1C isoform 5 (UniProt Q9UNZ2)
inactive: [1] 0.101 | [2] -0.038 | [3] -0.031 | [4] -0.042 | [5] 0.044 | [6] -0.026 | [7] -0.009 | [8] -0.001 | [9] 0.057 | [10] 0.011

NIPSNAP2 (UniProt O75323)
inactive: [1] -0.084 | [2] -0.047 | [3] -0.004 | [4] -0.033 | [5] 0.027 | [6] -0.016 | [7] -0.021 | [8] -0.039 | [9] -0.179 | [10] 0.023

NRAS (UniProt P01111)
inactive: [1] -0.05 | [2] 0.034 | [3] 0.042 | [4] 0.045 | [5] -0.027 | [6] -0.048 | [7] 0 | [8] -0.038 | [9] 0.004 | [10] -0.021

NFS1 (UniProt Q9Y697)
inactive: [1] 0.033 | [2] -0.054 | [3] -0.029 | [4] -0.014 | [5] -0.024 | [6] 0.031 | [7] 0.026 | [8] -0.041 | [9] -0.012 | [10] -0.004

NNMT (UniProt P40261)
inactive: [1] 0.013 | [2] -0.04 | [3] -0.179 | [4] -0.037 | [5] -0.056 | [6] 0.128 | [7] -0.023 | [8] 0.013 | [9] -0.042 | [10] 0.139

NRBF2 (UniProt Q96F24)
inactive: [1] 0.001 | [2] -0.018 | [3] -0.008 | [4] -0.055 | [5] 0.023 | [6] -0.064 | [7] -0.035 | [8] 0.024 | [9] -0.039 | [10] -0.058

NRF1 isoform 4 (UniProt Q16656)
inactive: [1] 0.021 | [2] -0.088 | [3] -0.129 | [4] -0.037 | [5] 0.056 | [6] 0.047 | [7] 0.039 | [8] -0.02 | [9] -0.064 | [10] 0.04

NPTN (UniProt Q9Y639)
inactive: [1] 0.08 | [2] 0.051 | [3] 0.041 | [4] 0.087 | [5] -0.158 | [6] -0.006 | [7] -0.011 | [8] 0 | [9] 0.079 | [10] -0.058

NHP2 (UniProt Q9NX24)
inactive: [1] 0.077 | [2] 0.087 | [3] 0.23 | [4] 0.09 | [5] -0.117 | [6] -0.048 | [7] 0.013 | [8] 0.145 | [9] 0.213 | [10] -0.106

NF2 (UniProt P35240)
inactive: [1] -0.024 | [2] -0.033 | [3] 0.016 | [4] -0.07 | [5] 0.058 | [6] 0.044 | [7] 0.007 | [8] 0.05 | [9] -0.083 | [10] -0.025

NEK3 (UniProt P51956)
inactive: [1] 0.09 | [2] 0.156 | [3] -0.119 | [4] 0.011 | [5] 0.016 | [6] -0.256 | [7] 0.099 | [8] 0.043 | [9] -0.017 | [10] -0.063

NOMO2 (UniProt Q5JPE7)
inactive: [1] 0.034 | [2] -0.03 | [3] -0.061 | [4] 0.006 | [5] 0.021 | [6] 0.048 | [7] 0.047 | [8] 0.01 | [9] 0.017 | [10] -0.056

NME7 (UniProt Q9Y5B8)
inactive: [1] 0.159 | [2] -0.13 | [3] -0.184 | [4] 0.057 | [5] 0.159 | [6] 0.145 | [7] 0.03 | [8] 0.071 | [9] 0.05 | [10] 0.186

NPC2 (UniProt P61916)
inactive: [1] 0.048 | [2] 0.016 | [3] -0.034 | [4] -0.008 | [5] -0.011 | [6] 0.011 | [7] 0.142 | [8] -0.008 | [9] -0.025 | [10] 0.027

NIPSNAP1 (UniProt Q9BPW8)
inactive: [1] 0.055 | [2] -0.015 | [3] -0.02 | [4] -0.027 | [5] -0.014 | [6] -0.061 | [7] 0.062 | [8] -0.108 | [9] -0.045 | [10] 0.046

NEMP1 (UniProt O14524)
inactive: [1] -0.007 | [2] -0.204 | [3] -0.078 | [4] -0.181 | [5] 0.028 | [6] 0.078 | [7] 0.026 | [8] -0.019 | [9] -0.029 | [10] -0.113

NFATC2IP (UniProt Q8NCF5)
inactive: [1] -0.016 | [2] -0.017 | [3] -0.087 | [4] -0.011 | [5] 0.035 | [6] 0.078 | [7] 0.075 | [8] -0.017 | [9] 0.02 | [10] -0.011

NELFA (UniProt Q9H3P2)
inactive: [1] 0.038 | [2] -0.016 | [3] 0.142 | [4] -0.245 | [5] 0.002 | [6] 0.061 | [7] -0.169 | [8] 0.065 | [9] -0.183 | [10] 0.002

NFYC (UniProt Q13952)
inactive: [1] 0.008 | [2] -0.079 | [3] -0.054 | [4] -0.027 | [5] -0.034 | [6] -0.057 | [7] -0.002 | [8] 0.024 | [9] -0.058 | [10] -0.044

NIT2 (UniProt Q9NQR4)
inactive: [1] -0.032 | [2] -0.03 | [3] -0.007 | [4] 0 | [5] -0.009 | [6] 0.019 | [7] 0.01 | [8] 0.002 | [9] -0.046 | [10] 0.003

NR2C2 isoform 2 (UniProt P49116)
inactive: [1] -0.056 | [2] -0.036 | [3] -0.211 | [4] -0.104 | [5] -0.02 | [6] -0.116 | [7] -0.022 | [8] 0.074 | [9] 0.03 | [10] -0.04

NOC2L (UniProt Q9Y3T9)
inactive: [1] -0.021 | [2] -0.154 | [3] 0.011 | [4] -0.171 | [5] -0.005 | [6] 0.022 | [7] -0.058 | [8] 0.032 | [9] -0.111 | [10] -0.059

NOP53 (UniProt Q9NZM5)
inactive: [1] 0.054 | [2] 0.201 | [3] 0.353 | [4] 0.258 | [5] -0.141 | [6] -0.051 | [7] -0.063 | [8] 0.256 | [9] 0.285 | [10] -0.152

NR2F6 (UniProt P10588)
inactive: [1] 0.048 | [2] 0.016 | [3] -0.049 | [4] -0.019 | [5] 0.058 | [6] -0.107 | [7] 0.297 | [8] 0.063 | [9] 0.04 | [10] -0.016

Quoted from the results shown (2 entries):
NR2C2 isoform 2 (UniProt P49116)
inactive: [1] -0.056 | [2] -0.036 | [3] -0.211 | [4] -0.104 | [5] -0.02 | [6] -0.116 | [7] -0.022 | [8] 0.074 | [9] 0.03 | [10] -0.04

NOC2L (UniProt Q9Y3T9)
inactive: [1] -0.021 | [2] -0.154 | [3] 0.011 | [4] -0.171 | [5] -0.005 | [6] 0.022 | [7] -0.058 | [8] 0.032 | [9] -0.111 | [10] -0.059

Remaining list, next part:

NFU1 (UniProt Q9UMS0)
inactive: [1] 0.008 | [2] -0.013 | [3] -0.035 | [4] -0.041 | [5] 0.064 | [6] 0 | [7] 0.047 | [8] -0.026 | [9] -0.116 | [10] 0.037

NSMAF (UniProt Q92636)
inactive: [1] -0.018 | [2] -0.107 | [3] -0.129 | [4] -0.18 | [5] 0.021 | [6] -0.067 | [7] 0.041 | [8] -0.01 | [9] -0.022 | [10] -0.056
